PubChem BioAssay AID1224830, NIAID, 2016
This is a random part of about 18,000 reagents tested. Of all reagents, about 2,900 (16%) were called active. 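Calls are made per well; low scores hint the gene aids the LPS response, high scores that it dampens it.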 Repeated entries: four replicate wells of each siRNA pool.

Test: 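Regulators of TLR4 signalling towards TNF-alpha in macrophage-like cells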 (primary screen)
System: human THP-1 monocytic leukaemia cells, TNF dual-luciferase reporter clone, PMA-differentiated to macrophage-like cells
Knock-down reagent: siRNA pool against human genes, 50 nM
Duration: LPS for 4 h, given about 3 days after siRNA transfection
Conditions: bacterial LPS (TLR4 ligand), 10 ng/ml
Detection: 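Ratio of firefly to renilla light, scaled to the plate median and expressed as a robust z-score per replicate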
Direction: TNF reporter robust z-score: higher = stronger TNF reporter response to LPS
Hit rule: 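a well is active when its z-score exceeds 2.8 or falls below -1.5; control wells carry no call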

| Gene | PubChem SID | TNF reporter robust z-score | Call |
| --- | --- | --- | --- |
| ATOSA | SID315458045 | -1.23 | inactive |
| ATOSA | SID315458045 | 0.21 | inactive |
| ATOSA | SID315458045 | -0.74 | inactive |
| ATOSA | SID315458045 | 0.1 | inactive |
| PRH2 | SID315450785 | -0.42 | inactive |
| PRH2 | SID315450785 | -0.4 | inactive |
| PRH2 | SID315450785 | -0.7 | inactive |
| PRH2 | SID315450785 | -0.74 | inactive |
| APOC1 | SID315447356 | 0.52 | inactive |
| APOC1 | SID315447356 | 0.13 | inactive |
| APOC1 | SID315447356 | -0.45 | inactive |
| APOC1 | SID315447356 | 0.7 | inactive |
| MTHFS | SID315454215 | -0.31 | inactive |
| MTHFS | SID315454215 | 1.62 | inactive |
| MTHFS | SID315454215 | 0.43 | inactive |
| MTHFS | SID315454215 | 0.56 | inactive |
| NAB2 | SID315450140 | 0.74 | inactive |
| NAB2 | SID315450140 | 0.51 | inactive |
| NAB2 | SID315450140 | 0.57 | inactive |

Additional entries follow:
| Gene | PubChem SID | TNF reporter robust z-score | Call |
| --- | --- | --- | --- |
| HVCN1 | SID315460335 | -1.52 | active |
| HVCN1 | SID315460335 | 0.1 | inactive |
| HVCN1 | SID315460335 | -0.9 | inactive |
| HVCN1 | SID315460335 | -0.1 | inactive |
| SEL1L | SID315451366 | 0.83 | inactive |
| SEL1L | SID315451366 | 0.16 | inactive |
| SEL1L | SID315451366 | 1.37 | inactive |
| SEL1L | SID315451366 | -1.37 | inactive |
| LENG8 | SID315461256 | 1.49 | inactive |
| LENG8 | SID315461256 | 0.3 | inactive |
| LENG8 | SID315461256 | 0.07 | inactive |
| LENG8 | SID315461256 | 0 | inactive |
| NTAN1 | SID315461589 | 0.23 | inactive |
| NTAN1 | SID315461589 | 1.01 | inactive |
| NTAN1 | SID315461589 | 0.25 | inactive |
| NTAN1 | SID315461589 | 0.27 | inactive |
| PLD3 | SID315455391 | -0.61 | inactive |
| PLD3 | SID315455391 | -0.59 | inactive |
| PLD3 | SID315455391 | -1.41 | inactive |
| PLD3 | SID315455391 | -0.9 | inactive |
| LCE3C | SID315464277 | -0.97 | inactive |
| LCE3C | SID315464277 | 0.2 | inactive |
| LCE3C | SID315464277 | -1.23 | inactive |
| LCE3C | SID315464277 | -1.14 | inactive |
| MAS1L | SID315461381 | 0.18 | inactive |
| MAS1L | SID315461381 | 2.17 | inactive |
| MAS1L | SID315461381 | 1.06 | inactive |
| MAS1L | SID315461381 | -0.05 | inactive |
